This test concerns the target TIFIA (human) (UniProt Q9NYV6). Description: co-IP; co-IP followed by western blot, in GBC cells; bait and conditions not described. (In general: A western blot detects proteins with antibodies after separation by electrophoresis.)

Protein sequences, listed by entry. Tags and fused reporters are not part of them.
UniProt Q9NYV6: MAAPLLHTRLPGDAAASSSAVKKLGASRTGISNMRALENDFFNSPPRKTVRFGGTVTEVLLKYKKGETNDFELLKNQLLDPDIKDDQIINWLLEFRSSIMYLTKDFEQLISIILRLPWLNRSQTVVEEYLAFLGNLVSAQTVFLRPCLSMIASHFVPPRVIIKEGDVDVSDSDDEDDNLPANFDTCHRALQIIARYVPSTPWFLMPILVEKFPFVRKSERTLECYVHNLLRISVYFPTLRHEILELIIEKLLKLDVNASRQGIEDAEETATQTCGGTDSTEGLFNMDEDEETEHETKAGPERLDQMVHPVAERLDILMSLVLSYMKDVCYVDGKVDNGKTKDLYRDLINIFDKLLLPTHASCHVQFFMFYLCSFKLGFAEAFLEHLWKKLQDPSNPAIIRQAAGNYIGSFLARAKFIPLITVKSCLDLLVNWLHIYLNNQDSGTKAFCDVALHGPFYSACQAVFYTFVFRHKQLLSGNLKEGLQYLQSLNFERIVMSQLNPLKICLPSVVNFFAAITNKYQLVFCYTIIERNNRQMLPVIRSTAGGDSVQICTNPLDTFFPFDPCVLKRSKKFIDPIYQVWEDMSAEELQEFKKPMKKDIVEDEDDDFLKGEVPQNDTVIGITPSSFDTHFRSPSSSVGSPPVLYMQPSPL

These are yes or no findings as the source states them, for the method shown. Binding seen in cells or lysates may run through a third protein. Some results given as binding are weak or reduced against the parent protein; the word gives no strength.

The record followed here is paper PMC6868820.

B1: PA2G4 (protein, UniProt Q9UQ80 1-394)
chain: MSGEDEQQEQTIAEDLVVTKYKMGGDIANRVLRSLVEASSSGVSVLSLCEKGDAMIMEETGKIFKKEKEMKKGIAFPTSISVNNCVCHFSPLKSDQDYILKEGDLVKIDLGVHVDGFIANVAHTFVVDVAQGTQVTGRKADVIKAAHLCAEAALRLVKPGNQNTQVTEAWNKVAHSFNCTPIEGMLSHQLKQHVIDGEKTIIQNPTDQQKKDHEKAEFEVHEVYAVDVLVSSGEGKAKDAGQRTTIYKRDPSKQYGLKMKTSRAFFSEVERRFDAMPFTLRAFEDEKKARMGVVECAKHELLQPFNVLYEKEGEFVAQFKFTVLLMPNGPMRITSGPFEPDLYKSEMEVQDAELKALLQSSASRKTQKKKKKKASKTAENATSGETLEENEAGD
Turning to B1, the binding result is “binds”.
